No constants are given. Whether binding was seen depends on the method and setting. Binding seen in cells or lysates may run through a third protein. These calls come from enrichment with a bait or labelling near it, and not all partners need be listed. Sequences can lack the tags named with a protein.
T1: FLAG-RBM39 (human) (UniProt Q14498)
T1 sequence: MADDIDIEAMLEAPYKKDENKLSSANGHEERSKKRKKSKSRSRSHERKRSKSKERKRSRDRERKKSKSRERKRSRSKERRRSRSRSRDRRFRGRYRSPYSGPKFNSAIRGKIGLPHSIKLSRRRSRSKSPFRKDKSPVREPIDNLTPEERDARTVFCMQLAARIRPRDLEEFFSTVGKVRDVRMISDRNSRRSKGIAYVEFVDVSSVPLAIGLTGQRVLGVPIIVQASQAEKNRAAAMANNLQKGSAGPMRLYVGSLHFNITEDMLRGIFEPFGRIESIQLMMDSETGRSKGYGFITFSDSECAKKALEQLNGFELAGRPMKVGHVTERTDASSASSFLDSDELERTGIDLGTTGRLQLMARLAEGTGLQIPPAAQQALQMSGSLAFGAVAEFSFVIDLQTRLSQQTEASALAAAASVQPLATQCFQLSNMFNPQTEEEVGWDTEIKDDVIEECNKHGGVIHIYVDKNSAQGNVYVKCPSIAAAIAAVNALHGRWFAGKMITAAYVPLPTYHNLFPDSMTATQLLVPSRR


Biological target: T1, FLAG-RBM39 (human)
Experiment: affinity purification with mass spectrometry; HEK293T transfected with pcDNA3.1 or FLAG-RBM39 for 48 h, lysed in modified radioimmunoprecipitation assay buffer; anti-FLAG affinity gel; SDS-PAGE, in-gel trypsin digest, label-free quantification, three biological replicates

binding	Binder
binds	METTL25 (enzyme, UniProt Q8N6Q8 1-603) MAASCPLPVTPDLPTLRAKLQGLLQFLRDALSISNAHTVDFYTESVWEELVDLPPETVLAALRKSASETEALPSETRPLVEAEWEAGMTDFPKIFCETSQKLVSVEAFALAAKYYSVQNLGICTPFEQLLVALRGNQNQRIGENQKAVEFMNMKKSHEVQAMSELISSIADYYGIKQVIDLGSGKGYLSSFLSLKYGLKVYGIDSSNTNTHGAEERNRKLKKHWKLCHAQSRLDVNGLALKMAKERKVQNKVKNKADTEEVFNNSPTNQEKMPTSAILPDFSGSVISNIRNQMETLHSQPHQEENLCFENSFSLINLLPINAVEPTSSQQIPNRETSEANKERRKMTSKSSESNIYSPLTSFITADSELHDIIKDLEDCLMVGLHTCGDLAPNTLRIFTSNSEIKGVCSVGCCYHLLSEEFENQHKERTQEKWGFPMCHYLKEERWCCGRNARMSACLALERVAAGQGLPTESLFYRAVLQDIIKDCYGITKCDRHVGKIYSKCSSFLDYVRRSLKKLGLDESKLPEKIIMNYYEKYKPRMNELEAFNMLKVVLAPCIETLILLDRLCYLKEQEDIAWSALVKLFDPVKSPRCYAVIALKKQQ
binds	FBXW4 (protein, UniProt P57775 1-412) MAAAAGEEEEEEEAARESAARPAAGPALWRLPEELLLLICSYLDMRALGRLAQVCRWLRRFTSCDLLWRRIARASLNSGFTRLGTDLMTSVPVKERVKVSQNWRLGRCREGILLKWRCSQMPWMQLEDDSLYISQANFILAYQFRPDGASLNRRPLGVFAGHDEDVCHFVLANSHIVSAGGDGKIGIHKIHSTFTVKYSAHEQEVNCVDCKGGIIVSGSRDRTAKVWPLASGRLGQCLHTIQTEDRVWSIAISPLLSSFVTGTACCGHFSPLRIWDLNSGQLMTHLGSDFPPGAGVLDVMYESPFTLLSCGYDTYVRYWDLRTSVRKCVMEWEEPHDSTLYCLQTDGNHLLATGSSYYGVVRLWDRRQRACLHAFPLTSTPLSSPVYCLRLTTKHLYAALSYNLHVLDFQNP

From article PMC11490714
